# Experimental data as given in EP1893207B1, “USE OF SUBSTITUTED PIPERAZINE DERIVATIVES AND MORPHOLINE DERIVATIVES” (Merck Patent GmbH, priority 2005, dated 2006).
# Test system: normale menschliche Melanocyten
# Experiment: Melanin assay (melanin content of human melanocyte cultures, optical density at 405 nm)
# Assay type: cell-based
# Details: 240 h incubation
# From the text: Das Potential der Verbindungen nach Formeln Ia bis IIp als Hautaufheller-Wirkstoff wurde außerdem durch den Melanin-Versuch verifiziert. Der Effekt in Bezug auf den Melanin-Gehalt von menschlichen epidermalen Melanocyten-Kulturen dieser Verbindungen wurde ermittelt und mit der Referenzverbindung (Kojicsäure) verglichen.
# Eine vorausgehende Cytotoxizitäts-Studie der Verbindungen nach Formeln Ia bis IIp wurde durchgeführt um drei nicht-cytotoxische Konzentrationen für den Melanin-Versuch zu ermitteln.
# Melanin-Versuch: normale menschliche Melanocyten wurden in 24 Lochplatten (110.000 Zellen/Loch) kultiviert. Bei 50 % Zusammenfluss wurde das Kulturmedium mit oder ohne (Kontrollverbindung) Verbindungen der Formeln Ia bis IIp durch frisches Kulturmedium in drei verschiedenen Konzentrationen ersetzt.
# Nach der Inkubation (240 Stunden) wurden die Monolayers gewaschen, die Zellen lysiert und das Melanin extrahiert. Es wurde die optische Dichte jedes experimentellen Punktes bei 405 nm gegen den Melanin-Standard gemessen. Tabelle 2 zeigt die Ergebnisse zwei ausgewählter Verbindungen im Vergleich zur Kojicsäure und der Kontrollverbindung (mit 100% Melaningehalt), wobei der ermittelte Melaningehalt (in %) bei jeweils drei verschiedenen Konzentrationen angegeben ist. Tab. 2 Melanin-Versuchsergebnisse
compound,measurement,setting,value
"Oc1cccc(CN2CCN(Cc3ccccc3)CC2)c1O [Ia, 3-(4-Benzyl-piperazin-1-ylmethyl)-benzen-1,2-diol]",Proteine,Konzent. 0.8 µg/mL,0.504 mg/mL
"O=c1cc(CO)occ1O [Kojicsäure, reference compound]",Proteine,Konzent. 6.8 µg/mL,0.450 mg/mL
same,Proteine,Konzent. 15.6 µg/mL,0.431 mg/mL
same,Proteine,Konzent. 36 µg/mL,0.358 mg/mL
"Oc1ccc(CN2CCOCC2)c(O)c1 [Ih, 4-Morpholin-1-ylmethyl-benzen-1,3-diol]",Proteine,Konzent. 1.6 µg/mL,0.48 mg/mL
same,Proteine,Konzent. 8 µg/mL,0.525 mg/mL
same,Proteine,Konzent. 40 µg/mL,0.48 mg/mL
"CCN1CCN(Cc2ccc(O)cc2O)CC1 [Ie, 4-(4-Ethyl-piperazin-1-ylmethyl)-benzen-1,3-diol]",Proteine,Konzent. 0.8 µg/mL,0.488 mg/mL
same,Proteine,Konzent. 4 µg/mL,0.497 mg/mL
same,Proteine,Konzent. 20 µg/mL,0.490 mg/mL
"Oc1ccc(CN2CCN(Cc3ccccc3)CC2)c(O)c1 [Ib, 4-(4-Benzyl-piperazin-1-ylmethyl)-benzen-1,3-diol]",Proteine,Konzent. 0.8 µg/mL,0.486 mg/mL
same,Proteine,Konzent. 4 µg/mL,0.508 mg/mL
